Data on 18 compounds can be found in PubChem BioAssay AID212 (DTP/NCI, 2004).

The test system of the assay is BDF1 mice, colon carcinoma 38 sc, T/C %. Description: NCI In Vivo Anticancer Drug Screen. Data for tumor model Colon Carcinoma 38 (subcutaneous) in B6D2F1 (BDF1) mice. A digest of the protocol: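 Ratio of survival or tumor size, compound-treated animals relative to vehicle controls, in tumor-bearing mice.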
Setting [1] is: T/C endpoint: median tumor weight (est.), dose: 12.5 mg/kg/injection, schedule: Q07DX002 (ip), vehicle: saline with Tween-80, evaluated on day 20, higher T/C = larger tumour.
The mark [2] stands for this setting: T/C endpoint: median tumor weight (est.), dose: 100.0 mg/kg/injection, schedule: Q07DX002 (ip), vehicle: saline with Tween-80, evaluated on day 20, higher T/C = larger tumour.
The mark [3] stands for this setting: T/C endpoint: median tumor weight (est.), dose: 200.0 mg/kg/injection, schedule: Q07DX002 (ip), vehicle: saline with Tween-80, higher T/C = larger tumour.
Setting [4] is: T/C endpoint: median tumor weight (est.), dose: 400.0 mg/kg/injection, schedule: Q07DX002 (ip), vehicle: saline with Tween-80, higher T/C = larger tumour.
Where [5] appears, read: T/C endpoint: median tumor weight (est.), dose: 25.0 mg/kg/injection, schedule: Q07DX002 (ip), vehicle: saline with Tween-80, evaluated on day 20, higher T/C = larger tumour.
The mark [6] stands for this setting: T/C endpoint: median tumor weight (est.), dose: 200.0 mg/kg/injection, schedule: Q07DX002 (ip), vehicle: saline with Tween-80, evaluated on day 20, higher T/C = larger tumour.
Where [7] appears, read: T/C endpoint: median tumor weight (est.), dose: 800.0 mg/kg/injection, schedule: Q07DX002 (ip), vehicle: Klucel (hydroxypropylcellulose) (HPC), higher T/C = larger tumour.
Setting [8] is: T/C endpoint: median tumor weight (est.), dose: 200.0 mg/kg/injection, schedule: Q07DX002 (ip), vehicle: Klucel (hydroxypropylcellulose) (HPC), higher T/C = larger tumour.

The list is a part of this screen's results and no random one: it is rich in T/C values a quarter to a half above the control, in often repeated tests (any T/C) and in doses without a T/C. Other doses and runs of a compound stand elsewhere. T/C gives the treated animals as a percentage of the vehicle group. Schedules are NCI's codes, taken here to give the interval after Q, in days (D) or hours (H), and the number of doses after X. Some doses were run more than once; the results are listed from low to high. Some T/C values carry the count of animals alive at the toxicity check (mostly the fifth day); without a count, all were alive then. Some entries give survivors of the animals treated and no T/C: the source files T/C as zero there, which appears to mark a toxic dose or a test without result, not a measured value. Survivors were counted at the toxicity check, usually on the fifth day, unless a day is given; later deaths do not show. For survival time, the PubChem record calls one and a half times the control and up active, and a quarter to a half above the control has no call in these data; cut-offs in other NCI protocols can differ.

Take `O=C(NO)c1ccc(O)c(O)c1`: the survivor count runs as follows: (T/C endpoint: median tumor weight (est.), dose: 800.0 mg/kg/injection, schedule: Q07DX002 (ip), vehicle: water, higher T/C = larger tumour) 1 of 10 on day 20; (T/C endpoint: median tumor weight (est.), dose: 1600.0 mg/kg/injection, schedule: Q07DX002 (ip), vehicle: water, higher T/C = larger tumour) 0 of 10 on day 20.

With `C1=CCOCOC1`, the T/C was 132 % of control [9 of 10 alive on day 20] under setting [1] and 148 % of control under setting [2]. Besides, the survivor count by setting is: under setting [3], 4 of 10 on day 20; under setting [4], 0 of 10 on day 20.

In the case of `O=C(O)C1Cc2nc[nH]c2CN1CO` (centres undefined), the T/C runs as follows: under setting [5], 138 % of control; under setting [6], 139 % of control; (T/C endpoint: median tumor weight (est.), dose: 400.0 mg/kg/injection, schedule: Q07DX002 (ip), vehicle: saline with Tween-80, evaluated on day 20, higher T/C = larger tumour) 138 % of control [9 of 10 alive on day 20]; (T/C endpoint: median tumor weight (est.), dose: 800.0 mg/kg/injection, schedule: Q07DX002 (ip), vehicle: saline with Tween-80, evaluated on day 20, higher T/C = larger tumour) 138 % of control [7 of 10 alive on day 20].

Regarding `O=[N+]([O-])c1ccc(Sc2ccncn2)c([N+](=O)[O-])c1`, the survivor count runs as follows: under setting [3], 4 of 10 on day 20 and 5 of 10 on day 20; under setting [4], 0 of 10 on day 20.

As for `CCCN1COC(OCC)C(C)(C)C1` (centres undefined), the T/C under setting [5] was 130 % of control and the T/C under setting [6] is 138 % of control. Further, the survivor count under setting [4] is 0 of 9 on day 20 and 4 of 10 on day 20; the survivor count (T/C endpoint: median tumor weight (est.), dose: 800.0 mg/kg/injection, schedule: Q07DX002 (ip), vehicle: saline with Tween-80, higher T/C = larger tumour) was 0 of 10 on day 20.

Take `CSc1nc(=O)[nH]nc1SCc1ccccc1`: the T/C reads like this: (T/C endpoint: median tumor weight (est.), dose: 50.0 mg/kg/injection, schedule: Q07DX002 (ip), vehicle: Klucel (hydroxypropylcellulose) (HPC), evaluated on day 20, higher T/C = larger tumour) 138 and 148 % of control; (T/C endpoint: median tumor weight (est.), dose: 400.0 mg/kg/injection, schedule: Q07DX002 (ip), vehicle: Klucel (hydroxypropylcellulose) (HPC), evaluated on day 20, higher T/C = larger tumour) 136 % of control.

For the compound `CCOC(=O)C(N)CSC(=O)NC` (centres undefined), under “T/C endpoint: median tumor weight (est.), dose: 1000.0 mg/kg/injection, schedule: Q07DX002 (ip), vehicle: saline, higher T/C = larger tumour”, the survivor count is 2 of 10 on day 20.

Turning to `CCC(c1ccc(OC(=O)Cc2ccc(N(CCCl)CCCl)cc2)cc1)C(CC)c1ccc(OC(=O)Cc2ccc(N(CCCl)CCCl)cc2)cc1` (centres undefined), the T/C is 143 % of control (T/C endpoint: median tumor weight (est.), dose: 37.5 mg/kg/injection, schedule: Q07DX002 (ip), vehicle: saline with Tween-80, evaluated on day 20, higher T/C = larger tumour); 126 and 133 % of control (T/C endpoint: median tumor weight (est.), dose: 75.0 mg/kg/injection, schedule: Q07DX002 (ip), vehicle: saline with Tween-80, evaluated on day 20, higher T/C = larger tumour).

Turning to `CCOC1=Cc2c(oc3c(C(C)(C)C)cc(OCC)cc23)OC(C(C)(C)C)=C1`, the T/C under setting [1] is 143 % of control.

Take `CC(=O)C1(O)Cc2c(O)c3c(c(O)c2C(OC2CC(N)C(O)C(C)O2)C1)C(=O)c1ccccc1C3=O` (centres undefined): the T/C by setting is: (T/C endpoint: median survival time, dose: 2.3 mg/kg/injection, schedule: Q07DX002 (iv), vehicle: saline, higher T/C = longer survival) 127 % of control; (T/C endpoint: median survival time, dose: 3.7 mg/kg/injection, schedule: Q07DX002 (iv), vehicle: saline, higher T/C = longer survival) 147 % of control [9 of 10 alive on day 81]. Moreover, the survivor count reads like this: (T/C endpoint: median survival time, dose: 6.0 mg/kg/injection, schedule: Q07DX002 (iv), vehicle: saline, higher T/C = longer survival) 1 of 10 on day 81; (T/C endpoint: median tumor weight (est.), dose: 1.5 mg/kg/injection, schedule: Q07DX002 (ip), vehicle: saline, higher T/C = larger tumour) 1 of 10 on day 20; (T/C endpoint: median tumor weight (est.), dose: 3.0 mg/kg/injection, schedule: Q07DX002 (ip), vehicle: saline, higher T/C = larger tumour) 0 of 10 on day 20; (T/C endpoint: median tumor weight (est.), dose: 6.0 mg/kg/injection, schedule: Q07DX002 (ip), vehicle: saline, higher T/C = larger tumour) 0 of 10 on day 20; (T/C endpoint: median tumor weight (est.), dose: 12.0 mg/kg/injection, schedule: Q07DX002 (ip), vehicle: saline, higher T/C = larger tumour) 0 of 10 on day 20.

Regarding `COCC1OC2OC3C(COC)OC(OC4C(COC)OC(OC5C(COC)OC(OC6C(COC)OC(OC7C(COC)OC(OC8C(COC)OC(OC1C(O)C2O)C(O)C8O)C(O)C7O)C(O)C6O)C(O)C5O)C(O)C4O)C(O)C3O` (centres undefined) (tested in a mixture with another compound), under setting [7], the survivor count was 5 of 10 on day 20.

For the compound `CN(C)N=Nc1ccccc1`, under setting [8], the survivor count was 0 of 10 on day 20 and 2 of 10 on day 20.

With `O=S1(=O)C=C(c2ccccc2)C(c2ccccc2)=C1`, the survivor count is 5 of 10 on day 20 (T/C endpoint: median tumor weight (est.), dose: 100.0 mg/kg/injection, schedule: Q07DX002 (ip), vehicle: saline with Tween-80, higher T/C = larger tumour) and 0 of 10 on day 20 under setting [3].

On to `BrC1CC(Br)c2c1c1c(c3c2C(Br)CC3Br)C(Br)CC1Br` (centres undefined), for which the T/C under setting [1] was 138 % of control; the T/C under setting [2] is 131 and 133 % of control.

For the compound `c1cc(OCC2CO2)ccc1OCC1CO1` (centres undefined), the T/C under setting [5] was 147 % of control. The survivor count under setting [7] was 0 of 10 on day 20.

On to `CC(=O)C1=C(O)C2(O)C(=O)c3c(c(C)c4ccc(C)c(O)c4c3O)CC2C(N)C1=O` (centres undefined), for which the survivor count (T/C endpoint: median tumor weight (est.), dose: 120.0 mg/kg/injection, schedule: Q07DX002 (ip), vehicle: saline + alcohol, higher T/C = larger tumour) is given as 3 of 10 on day 20 and the survivor count (T/C endpoint: median tumor weight (est.), dose: 240.0 mg/kg/injection, schedule: Q07DX002 (ip), vehicle: saline + alcohol, higher T/C = larger tumour) is reported as 0 of 10 on day 20.

Turning to `Cc1c2ccncc2c(C)c2c1[nH]c1ccccc12`, the T/C runs as follows: (T/C endpoint: median tumor weight (est.), dose: 10.0 mg/kg/injection, schedule: Q07DX002 (ip), vehicle: distilled water + Tween-80, evaluated on day 20, higher T/C = larger tumour) 130 % of control; (T/C endpoint: median tumor weight (est.), dose: 10.0 mg/kg/injection, schedule: Q07DX002 (ip), vehicle: water, evaluated on day 20, higher T/C = larger tumour) 134 % of control. Further, the survivor count was 6 of 10 on day 20 (T/C endpoint: median tumor weight (est.), dose: 160.0 mg/kg/injection, schedule: Q07DX002 (ip), vehicle: distilled water + Tween-80, higher T/C = larger tumour); 3 of 10 on day 20 (T/C endpoint: median tumor weight (est.), dose: 160.0 mg/kg/injection, schedule: Q07DX002 (ip), vehicle: water, higher T/C = larger tumour); 3 of 10 under setting [8]; 6 of 10 (T/C endpoint: median tumor weight (est.), dose: 200.0 mg/kg/injection, schedule: Q07DX003 (ip), vehicle: Klucel (hydroxypropylcellulose) (HPC), higher T/C = larger tumour); 0 of 10 on day 20 (T/C endpoint: median tumor weight (est.), dose: 240.0 mg/kg/injection, schedule: Q07DX002 (ip), vehicle: water, higher T/C = larger tumour).

Consider `CC(C)NC(=O)OCc1c(COC(=O)NC(C)C)c(-c2ccc(Cl)c(Cl)c2)n2c1CCC2`, for which the survivor count (T/C endpoint: median survival time, dose: 95.0 mg/kg/injection, schedule: Q01DX005 (ip), vehicle: other, higher T/C = longer survival) is given as 4 of 10 on day 59; the survivor count (T/C endpoint: median survival time, dose: 154.0 mg/kg/injection, schedule: Q01DX005 (ip), vehicle: other, higher T/C = longer survival) is given as 0 of 10 on day 59; the survivor count (T/C endpoint: median survival time, dose: 248.0 mg/kg/injection, schedule: Q01DX005 (ip), vehicle: other, higher T/C = longer survival) is on record as 0 of 10 on day 59; the survivor count (T/C endpoint: median survival time, dose: 400.0 mg/kg/injection, schedule: Q01DX005 (ip), vehicle: other, higher T/C = longer survival) was 0 of 10 on day 59; the survivor count (T/C endpoint: median tumor weight (est.), dose: 400.0 mg/kg/injection, schedule: Q07DX002 (ip), vehicle: distilled water + Tween-80, higher T/C = larger tumour) is given as 0 of 10 on day 20. For the same compound, the T/C runs as follows: (T/C endpoint: median tumor weight (est.), dose: 6.25 mg/kg/injection, schedule: Q07DX002 (ip), vehicle: distilled water + Tween-80, evaluated on day 20, higher T/C = larger tumour) 138 % of control [9 of 10 alive]; (T/C endpoint: median tumor weight (est.), dose: 12.5 mg/kg/injection, schedule: Q07DX002 (ip), vehicle: distilled water + Tween-80, evaluated on day 20, higher T/C = larger tumour) 129 % of control; (T/C endpoint: median tumor weight (est.), dose: 50.0 mg/kg/injection, schedule: Q07DX002 (ip), vehicle: distilled water + Tween-80, evaluated on day 20, higher T/C = larger tumour) 131 % of control [9 of 10 alive].
